Assay results taken from US20260234204A1, “BRK PEPTIDES AND METHODS OF USE” (Concarlo Therapeutics, Inc., priority 2023, published 2026).
For at least one compound, name, drawing or mass did not settle the structure.

Legend:
[1] = system: Pancreatic Ductal Adenocarcinoma (PDAC) cell lines; experiment: Cell viability (Cell Titer Glo) in PDAC cell lines; type: cell-based; settings: panel of 8 PDAC cell lines with KRAS and CDKN2A/p16 mutation; increasing concentrations, 24 h
Protocol: FIGS. 1A-1D. FIGS. 1A and 1B are respectively a graph and an image showing that PDAC cells are resistant to palbociclib-treatment. Cells were treated with increasing concentrations of palbociclib (PD) for 24 h before analysis for viability (Cell Titer Glo, Promega). N=4 *p<0.05. Control=untreated cells. Viability plotted relative to growth in the presence of control. FIGS. 1C and 1D show PL5 cells treated with increasing concentrations of IpY.20 and E′NP before analysis of Cell Titer Glo analysis.
FIGS. 2A-2F. FIGS. 2A and 2B are Western Blots, illustrating results from assays performed with treatment naive cells to analyze the expression levels of p27. Cells were harvested with RIPA buffer supplemented with protease inhibitors. The MCF7-ALT Dox inducible cell line was used as a control. […] Cells were treated with increasing concentrations of IpY.20 for 24h. Viability was measured using the Cell Titer Glo assay (Promega). Viability was calculated relative to untreated control cells. N=4 *p<0.05. […] FIGS. 2D, 2E and 2F are graphs illustrating that IpY.20 induces ROS. […] ROS levels were measured using ROS-Glo assay (Promega). % ROS was calculated relative to untreated control cells. […]
To test whether PDAC cells might be resistant to CDK4/6 inhibition due to activation of CDK2, experiments were performed. […] Some non-specific liposome toxicity was detected at the high concentrations. […]

[2] = system: metastatic breast cancer patients; settings: cited from earlier work

For `CC(=O)c1c(C)c2cnc(Nc3ccc(N4CCNCC4)cn3)nc2n(C2CCCC2)c1=O` [palbociclib], the “viability of PDAC cell lines” value [1] is listed as “resistant”, the “overall survival (OS)” value ([2]; compared with patients treated with letrozole alone) is listed as “mirrored” and the “median progression-free survival (PFS)” value ([2]; in combination with letrozole, extended from 10.2) is listed as 20.2 months.
